Here are results for two substances from patent US10064952B2 (Genzyme Corporation, priority 2014, dated 2018).

This series is described as follows: peptide synthesis. As to conditions: late stage modification step; for final HPLC purity: reversed-phase HPLC.

Take Aminooxy-Cys-MC-VC-PABC-MMAE: the step yield was found to be 62% and the “final HPLC purity” value is on record as more than 96%.

Aminooxy-Cys-MC-VC-PABC-PEG8-Do110: the step yield is listed as 46% and the “final HPLC purity” value is more than 96%.
